Assay results: paper PMC12702058

Chains of the proteins cited; added tags and fusions are not shown. Residues count along the entry.
UniProt O95817: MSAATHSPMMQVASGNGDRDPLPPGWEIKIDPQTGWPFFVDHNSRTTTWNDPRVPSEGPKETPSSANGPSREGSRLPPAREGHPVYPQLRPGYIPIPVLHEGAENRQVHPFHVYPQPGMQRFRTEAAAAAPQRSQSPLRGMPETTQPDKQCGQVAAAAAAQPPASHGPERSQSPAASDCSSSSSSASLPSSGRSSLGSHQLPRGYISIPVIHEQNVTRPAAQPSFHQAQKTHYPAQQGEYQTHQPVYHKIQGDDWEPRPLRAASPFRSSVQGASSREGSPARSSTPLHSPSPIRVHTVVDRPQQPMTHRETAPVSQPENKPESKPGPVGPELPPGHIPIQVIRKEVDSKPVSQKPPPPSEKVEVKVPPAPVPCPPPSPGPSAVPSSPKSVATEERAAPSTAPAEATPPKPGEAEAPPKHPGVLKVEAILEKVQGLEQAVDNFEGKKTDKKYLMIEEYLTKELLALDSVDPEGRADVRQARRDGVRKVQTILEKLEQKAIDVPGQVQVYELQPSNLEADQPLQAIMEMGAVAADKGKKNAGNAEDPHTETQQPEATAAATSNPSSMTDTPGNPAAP
UniProt Q04721, residues 26-2471: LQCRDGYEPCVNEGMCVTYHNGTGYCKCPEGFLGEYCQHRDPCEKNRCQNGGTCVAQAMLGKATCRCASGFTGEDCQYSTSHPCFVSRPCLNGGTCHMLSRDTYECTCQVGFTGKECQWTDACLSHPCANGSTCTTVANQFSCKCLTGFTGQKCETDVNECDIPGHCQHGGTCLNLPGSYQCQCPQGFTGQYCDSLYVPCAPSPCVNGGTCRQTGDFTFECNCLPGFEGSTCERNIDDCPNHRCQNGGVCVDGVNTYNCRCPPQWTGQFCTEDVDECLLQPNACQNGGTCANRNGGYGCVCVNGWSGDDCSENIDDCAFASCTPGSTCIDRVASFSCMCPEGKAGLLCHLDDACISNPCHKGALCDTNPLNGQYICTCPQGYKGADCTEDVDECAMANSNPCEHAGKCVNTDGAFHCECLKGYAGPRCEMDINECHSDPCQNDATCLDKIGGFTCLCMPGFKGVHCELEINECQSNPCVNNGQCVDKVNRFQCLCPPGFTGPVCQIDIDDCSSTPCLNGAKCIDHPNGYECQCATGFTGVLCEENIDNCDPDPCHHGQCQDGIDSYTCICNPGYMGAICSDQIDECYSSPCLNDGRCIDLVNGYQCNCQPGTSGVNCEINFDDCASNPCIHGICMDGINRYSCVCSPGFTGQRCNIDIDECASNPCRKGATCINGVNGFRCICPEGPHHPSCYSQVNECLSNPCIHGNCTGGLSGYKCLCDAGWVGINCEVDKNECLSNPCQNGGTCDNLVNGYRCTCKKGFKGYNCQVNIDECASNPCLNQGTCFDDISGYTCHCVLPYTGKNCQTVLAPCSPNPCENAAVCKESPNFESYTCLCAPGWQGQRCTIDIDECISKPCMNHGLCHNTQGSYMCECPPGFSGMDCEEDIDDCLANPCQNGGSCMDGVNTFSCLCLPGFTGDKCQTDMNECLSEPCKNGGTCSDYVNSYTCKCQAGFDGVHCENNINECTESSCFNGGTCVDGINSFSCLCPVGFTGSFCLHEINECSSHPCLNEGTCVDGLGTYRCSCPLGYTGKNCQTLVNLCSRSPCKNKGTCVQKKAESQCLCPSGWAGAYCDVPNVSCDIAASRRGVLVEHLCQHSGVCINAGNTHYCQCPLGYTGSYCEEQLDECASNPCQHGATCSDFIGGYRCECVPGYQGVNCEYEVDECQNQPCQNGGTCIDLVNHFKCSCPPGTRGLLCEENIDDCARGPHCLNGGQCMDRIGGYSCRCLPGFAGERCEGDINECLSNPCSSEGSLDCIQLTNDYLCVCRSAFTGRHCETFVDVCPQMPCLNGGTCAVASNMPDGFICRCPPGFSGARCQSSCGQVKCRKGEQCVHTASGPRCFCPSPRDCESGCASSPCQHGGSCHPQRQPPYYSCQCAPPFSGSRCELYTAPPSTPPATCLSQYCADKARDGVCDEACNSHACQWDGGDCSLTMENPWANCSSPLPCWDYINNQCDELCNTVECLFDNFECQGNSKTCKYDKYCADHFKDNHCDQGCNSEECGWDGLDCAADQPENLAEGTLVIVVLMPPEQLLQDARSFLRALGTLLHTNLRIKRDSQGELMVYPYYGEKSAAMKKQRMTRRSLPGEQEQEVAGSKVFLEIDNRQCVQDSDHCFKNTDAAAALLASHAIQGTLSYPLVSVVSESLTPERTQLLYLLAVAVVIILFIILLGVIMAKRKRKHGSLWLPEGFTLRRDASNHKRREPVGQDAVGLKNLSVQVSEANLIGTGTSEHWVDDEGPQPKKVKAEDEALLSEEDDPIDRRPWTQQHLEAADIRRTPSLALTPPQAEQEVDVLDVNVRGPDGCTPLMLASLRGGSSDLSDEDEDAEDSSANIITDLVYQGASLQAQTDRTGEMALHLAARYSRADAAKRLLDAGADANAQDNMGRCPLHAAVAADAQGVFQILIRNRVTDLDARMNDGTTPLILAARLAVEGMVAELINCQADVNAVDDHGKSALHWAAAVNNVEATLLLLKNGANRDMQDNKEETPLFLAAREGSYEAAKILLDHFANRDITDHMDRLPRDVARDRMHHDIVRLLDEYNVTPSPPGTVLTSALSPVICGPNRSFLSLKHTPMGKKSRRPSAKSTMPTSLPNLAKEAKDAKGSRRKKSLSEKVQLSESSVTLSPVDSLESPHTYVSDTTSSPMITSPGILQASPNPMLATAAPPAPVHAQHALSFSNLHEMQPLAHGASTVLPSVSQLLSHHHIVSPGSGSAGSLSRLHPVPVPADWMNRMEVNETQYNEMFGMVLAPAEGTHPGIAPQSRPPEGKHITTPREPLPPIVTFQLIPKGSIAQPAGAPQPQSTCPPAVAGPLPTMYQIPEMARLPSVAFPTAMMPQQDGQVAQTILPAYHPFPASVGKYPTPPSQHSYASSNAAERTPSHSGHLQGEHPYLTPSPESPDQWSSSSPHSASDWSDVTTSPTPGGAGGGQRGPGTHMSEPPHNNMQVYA
UniProt P10586, residues 30-1907: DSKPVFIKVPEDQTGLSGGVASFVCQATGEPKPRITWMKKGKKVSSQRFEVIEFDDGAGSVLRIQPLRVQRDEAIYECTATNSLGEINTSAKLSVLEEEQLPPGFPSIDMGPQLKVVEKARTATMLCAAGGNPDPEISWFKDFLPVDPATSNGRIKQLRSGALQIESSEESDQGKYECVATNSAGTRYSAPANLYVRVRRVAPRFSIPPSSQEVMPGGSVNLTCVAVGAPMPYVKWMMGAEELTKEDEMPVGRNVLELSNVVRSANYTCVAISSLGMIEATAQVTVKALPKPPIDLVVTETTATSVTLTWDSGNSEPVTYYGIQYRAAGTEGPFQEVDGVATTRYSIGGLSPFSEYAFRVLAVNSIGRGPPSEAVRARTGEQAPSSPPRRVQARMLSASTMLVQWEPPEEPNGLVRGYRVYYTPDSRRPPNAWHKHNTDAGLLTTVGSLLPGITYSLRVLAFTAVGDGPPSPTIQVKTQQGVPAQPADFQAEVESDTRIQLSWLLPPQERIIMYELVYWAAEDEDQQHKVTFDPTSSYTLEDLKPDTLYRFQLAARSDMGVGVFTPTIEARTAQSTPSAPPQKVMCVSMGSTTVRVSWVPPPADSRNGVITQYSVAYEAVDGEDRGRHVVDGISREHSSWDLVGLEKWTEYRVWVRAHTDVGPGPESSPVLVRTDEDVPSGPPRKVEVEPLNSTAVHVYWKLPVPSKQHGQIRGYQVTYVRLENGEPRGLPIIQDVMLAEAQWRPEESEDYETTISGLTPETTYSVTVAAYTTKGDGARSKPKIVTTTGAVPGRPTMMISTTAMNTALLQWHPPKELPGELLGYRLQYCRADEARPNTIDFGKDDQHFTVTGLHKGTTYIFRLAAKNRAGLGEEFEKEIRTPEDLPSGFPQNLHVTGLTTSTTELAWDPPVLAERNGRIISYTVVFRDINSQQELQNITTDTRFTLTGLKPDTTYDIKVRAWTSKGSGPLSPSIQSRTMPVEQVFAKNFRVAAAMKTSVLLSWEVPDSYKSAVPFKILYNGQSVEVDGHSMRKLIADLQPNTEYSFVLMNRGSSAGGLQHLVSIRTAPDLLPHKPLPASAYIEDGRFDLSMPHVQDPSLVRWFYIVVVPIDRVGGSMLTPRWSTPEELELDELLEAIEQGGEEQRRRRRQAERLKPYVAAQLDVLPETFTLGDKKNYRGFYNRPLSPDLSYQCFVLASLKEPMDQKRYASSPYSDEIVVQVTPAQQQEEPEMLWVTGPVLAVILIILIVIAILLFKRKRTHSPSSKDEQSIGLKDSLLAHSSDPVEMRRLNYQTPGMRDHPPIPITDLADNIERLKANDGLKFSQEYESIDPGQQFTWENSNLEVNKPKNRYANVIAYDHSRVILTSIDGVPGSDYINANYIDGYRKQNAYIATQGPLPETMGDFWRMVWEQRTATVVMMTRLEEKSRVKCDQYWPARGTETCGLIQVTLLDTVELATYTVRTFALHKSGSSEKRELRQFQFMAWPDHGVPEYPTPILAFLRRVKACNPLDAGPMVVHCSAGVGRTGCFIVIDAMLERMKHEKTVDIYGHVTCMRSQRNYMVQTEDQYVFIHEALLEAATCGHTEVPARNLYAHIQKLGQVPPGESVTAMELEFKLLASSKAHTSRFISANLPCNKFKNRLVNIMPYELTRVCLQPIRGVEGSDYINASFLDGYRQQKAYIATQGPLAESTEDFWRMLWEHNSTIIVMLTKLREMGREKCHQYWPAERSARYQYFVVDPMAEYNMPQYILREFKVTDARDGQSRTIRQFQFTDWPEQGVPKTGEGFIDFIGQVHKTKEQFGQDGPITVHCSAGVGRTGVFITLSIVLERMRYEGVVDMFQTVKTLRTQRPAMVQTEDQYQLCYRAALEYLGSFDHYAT
UniProt Q01628: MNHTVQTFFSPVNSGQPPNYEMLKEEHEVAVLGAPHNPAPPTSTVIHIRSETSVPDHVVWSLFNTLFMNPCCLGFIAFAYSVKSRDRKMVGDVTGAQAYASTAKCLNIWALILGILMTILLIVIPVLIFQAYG
UniProt P05387: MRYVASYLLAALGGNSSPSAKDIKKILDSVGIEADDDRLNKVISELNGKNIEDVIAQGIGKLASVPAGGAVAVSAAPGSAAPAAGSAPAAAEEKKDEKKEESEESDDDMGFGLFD

T1: FLAG-MARCH8 (Membrane-Associated RING-CH 8) (human) (UniProt Q5T0T0)
T1 sequence: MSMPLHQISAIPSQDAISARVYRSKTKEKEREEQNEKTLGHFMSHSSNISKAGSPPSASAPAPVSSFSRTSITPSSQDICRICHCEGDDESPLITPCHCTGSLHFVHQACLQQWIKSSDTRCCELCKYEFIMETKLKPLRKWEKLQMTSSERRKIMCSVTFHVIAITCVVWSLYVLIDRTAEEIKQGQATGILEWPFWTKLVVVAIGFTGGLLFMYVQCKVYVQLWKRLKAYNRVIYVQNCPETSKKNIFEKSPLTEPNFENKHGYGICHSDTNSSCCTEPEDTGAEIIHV


Target: T1, FLAG-MARCH8 (Membrane-Associated RING-CH 8) (human)
Experiment: affinity purification with mass spectrometry; HeLa cells transfected with FLAG-MARCH8 or empty vector, treated with chloroquine; lysate in IP lysis buffer on anti-FLAG beads, 4 °C, 2 h; LC-MS/MS; proteins of the negative control excluded

| Molecule | binding |
| --- | --- |
| BAG3 (from UniProt O95817 1-575) | binds |
| NOTCH2 (from UniProt Q04721 26-2471) (receptor) | binds |
| PTPRF (from UniProt P10586 30-1907) (receptor) | binds |
| interferon-induced transmembrane protein 3 (IFITM3), endogenous (from UniProt Q01628 1-133) | binds |
| RCN1 (protein, UniProt Q15293 30-331) KPTVRKERVVRPDSELGERPPEDNQSFQYDHEAFLGKEDSKTFDQLTPDESKERLGKIVDRIDNDGDGFVTTEELKTWIKRVQKRYIFDNVAKVWKDYDRDKDDKISWEEYKQATYGYYLGNPAEFHDSSDHHTFKKMLPRDERRFKAADLNGDLTATREEFTAFLHPEEFEHMKEIVVLETLEDIDKNGDGFVDQDEYIADMFSHEENGPEPDWVLSEREQFNEFRDLNKDGKLDKDEIRHWILPQDYDHAQAEARHLVYESDKNKDEKLTKEEILENWNMFVGSQATNYGEDLTKNHDEL | binds |

Results, then the molecule that gave them:

| binding | Molecule |
| --- | --- |
| binds | RLA2 (from UniProt P05387 1-115) |
| binds | SLC39A14 (protein, UniProt Q15043 31-492) SSLGAPAISAASFLQDLIHRYGEGDSLTLQQLKALLNHLDVGVGRGNVTQHVQGHRNLSTCFSSGDLFTAHNFSEQSRIGSSELQEFCPTILQQLDSRACTSENQENEENEQTEEGRPSAVEVWGYGLLCVTVISLCSLLGASVVPFMKKTFYKRLLLYFIALAIGTLYSNALFQLIPEAFGFNPLEDYYVSKSAVVFGGFYLFFFTEKILKILLKQKNEHHHGHSHYASESLPSKKDQEEGVMEKLQNGDLDHMIPQHCSSELDGKAPMVDEKVIVGSLSVQDLQASQSACYWLKGVRYSDIGTLAWMITLSDGLHNFIDGLAIGASFTVSVFQGISTSVAILCEEFPHELGDFVILLNAGMSIQQALFFNFLSACCCYLGLAFGILAGSHFSANWIFALAGGMFLYISLADMFPEMNEVCQEDERKGSILIPFIIQNLGLLTGFTIMVVLTMYSGQIQIG |
| binds | PGM1 (enzyme, UniProt P36871 1-562) MVKIVTVKTQAYQDQKPGTSGLRKRVKVFQSSANYAENFIQSIISTVEPAQRQEATLVVGGDGRFYMKEAIQLIARIAAANGIGRLVIGQNGILSTPAVSCIIRKIKAIGGIILTASHNPGGPNGDFGIKFNISNGGPAPEAITDKIFQISKTIEEYAVCPDLKVDLGVLGKQQFDLENKFKPFTVEIVDSVEAYATMLRSIFDFSALKELLSGPNRLKIRIDAMHGVVGPYVKKILCEELGAPANSAVNCVPLEDFGGHHPDPNLTYAADLVETMKSGEHDFGAAFDGDGDRNMILGKHGFFVNPSDSVAVIAANIFSIPYFQQTGVRGFARSMPTSGALDRVASATKIALYETPTGWKFFGNLMDASKLSLCGEESFGTGSDHIREKDGLWAVLAWLSILATRKQSVEDILKDHWQKYGRNFFTRYDYEEVEAEGANKMMKDLEALMFDRSFVGKQFSANDKVYTVEKADNFEYSDPVDGSISRNQGLRLIFTDGSRIVFRLSGTGSAGATIRLYIDSYEKDVAKINQDPQVMLAPLISIALKVSQLQERTGRTAPTVIT |

No constants are given. Whether binding was seen depends on the method and setting. In cells and extracts the contact can be indirect. These calls come from enrichment with a bait or labelling near it, and not all partners need be listed. Tags and fused reporters may be left off the sequences shown.
